Experimental findings from PMC4755741 are described below.

Chains of the proteins cited; added tags and fusions are not shown. Lines headed by an entry give the natural chain unless they say otherwise; changes in a name come on top.
UniProt Q91X17: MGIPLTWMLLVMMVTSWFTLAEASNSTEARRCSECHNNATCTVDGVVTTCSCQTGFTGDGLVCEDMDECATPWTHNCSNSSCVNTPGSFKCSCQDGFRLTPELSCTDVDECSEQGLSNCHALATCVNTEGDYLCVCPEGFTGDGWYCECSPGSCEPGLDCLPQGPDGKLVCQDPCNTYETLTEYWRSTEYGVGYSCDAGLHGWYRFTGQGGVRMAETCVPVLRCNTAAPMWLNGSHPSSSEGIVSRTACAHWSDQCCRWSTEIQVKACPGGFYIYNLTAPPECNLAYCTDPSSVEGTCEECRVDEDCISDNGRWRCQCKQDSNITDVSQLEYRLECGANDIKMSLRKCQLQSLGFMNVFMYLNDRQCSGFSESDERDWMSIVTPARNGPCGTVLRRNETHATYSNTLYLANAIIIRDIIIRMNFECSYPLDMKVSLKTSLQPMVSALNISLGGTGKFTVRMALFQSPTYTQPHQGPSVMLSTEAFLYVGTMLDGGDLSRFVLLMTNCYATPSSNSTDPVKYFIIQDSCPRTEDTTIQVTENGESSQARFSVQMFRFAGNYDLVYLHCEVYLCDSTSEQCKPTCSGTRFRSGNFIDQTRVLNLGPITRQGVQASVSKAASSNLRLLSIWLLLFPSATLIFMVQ

Holding throughout (assay): co-sedimentation; polymerisation assay on urinary samples as in Jovine et al., 2002; supernatant and pellet fractions blotted for uromodulin
In assay [1] the target is urinary uromodulin from control (wild-type) mice (mouse (endogenous in urine)) (UniProt Q91X17).
In assay [2] the target is urinary uromodulin, long isoform, from Hpn-/- mice (mouse (endogenous in urine)) (UniProt Q91X17).
Assay [3] addresses urinary uromodulin, short isoform, from Hpn-/- mice (mouse (endogenous in urine)) (UniProt Q91X17).

These are yes or no findings as the source states them, for the method shown. Binding seen in cells or lysates may run through a third protein. Some results given as binding are weak or reduced against the parent protein; the word gives no strength.

Take “urinary uromodulin from control (wild-type) mice (from UniProt Q91X17 25-588)”: the binding entry in assay [1] was “binds”. As to “urinary uromodulin, long isoform, from Hpn-/- mice (from UniProt Q91X17 25-616)”, the binding result in assay [2] was “no binding”. For the substance “urinary uromodulin, short isoform, from Hpn-/- mice (from UniProt Q91X17 25-607)”, in assay [3], the binding result is recorded as “no binding”.
